Reference: paper PMC4091533
These are yes or no findings as the source states them, for the method shown. Binding seen in cells or lysates may run through a third protein. Some binding calls cover weakened binding; strength is not graded here.

Sequences of proteins named here, by UniProt entry; tags and fusion partners are left off.
UniProt Q14247: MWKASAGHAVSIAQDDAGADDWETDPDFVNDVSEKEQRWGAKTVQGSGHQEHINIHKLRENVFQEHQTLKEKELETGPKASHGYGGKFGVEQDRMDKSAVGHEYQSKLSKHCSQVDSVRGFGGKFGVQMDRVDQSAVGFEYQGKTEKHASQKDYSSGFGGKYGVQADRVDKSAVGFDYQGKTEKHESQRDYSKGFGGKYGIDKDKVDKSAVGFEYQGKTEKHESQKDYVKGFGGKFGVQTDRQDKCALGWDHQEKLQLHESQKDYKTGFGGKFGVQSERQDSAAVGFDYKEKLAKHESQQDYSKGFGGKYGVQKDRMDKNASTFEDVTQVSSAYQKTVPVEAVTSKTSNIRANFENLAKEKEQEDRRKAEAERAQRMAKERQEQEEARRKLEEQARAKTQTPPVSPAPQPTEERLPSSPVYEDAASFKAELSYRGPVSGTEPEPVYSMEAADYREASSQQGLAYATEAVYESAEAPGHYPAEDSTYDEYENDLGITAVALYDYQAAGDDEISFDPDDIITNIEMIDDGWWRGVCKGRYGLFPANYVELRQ

Columns and labels:
Assay in all cases: pull-down; GST-Hax-1 domains D1-D5 on glutathione Sepharose 4B beads incubated with 2 mg SKOV3 lysate, 4 hours at 4°C; GST-lysis buffer 150 mM NaCl, 20 mM Tris pH 8.0, 1 mM MgCl2, 0.1% NP40, 10% glycerol; washed five times; immunoblot for Rac1 or cortactin; only the target purified
[1] = target: GST-Hax-D1 (Hax-1 amino acids 1-56) (UniProt O00165)
[2] = target: GST-Hax-D3 (Hax-1 amino acids 113-168) (UniProt O00165)
[3] = target: GST-Hax-D4 (Hax-1 amino acids 169-224) (UniProt O00165)

binding [1]: binds
binding [2]: binds
binding [3]: binds weakly
Substance: cortactin (from UniProt Q14247 1-550)
